# Values joined by “and” are separate entries in the source; they are usually repeats but may differ in a detail not shown here. Equal entries are not always repeated. This is one part of the list. Shown are side measurements of this screen, not its main read-out; they come without a call. Compounds called inactive in the main read-out are mostly missing here. Potencies come from curve fits of mixed quality, noted in brackets.
# Experiment: qHTS Assay for Lipid Storage Modulators in Drosophila S3 Cells;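 as to cell number change: cells counted by Cell Tracker Red CMTPX staining in the red channel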
# Conditions: BODIPY lipid droplet fluorescence, 18-24 h; for cell number change: measured here: cell count max response, cells fed with added oleic acid
# How it was run: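 Drosophila S3 cells loaded with oleic acid (400 uM, as added) and compounds at several concentrations; lipid droplets imaged by 488-nm laser-scanning cytometry, 500–530 nm intensity and object ratio to cell channel. Percent activity normalized to 20 uM Triacsin C.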
# [1] = measured here: lipid fluorescence (Fed channel) AC50, cells fed with added oleic acid
# [2] = measured here: cell number channel AC50, cells fed with added oleic acid
Structure (SMILES),cell number change,AC50 [1],AC50 [2]
CCOC(=O)N1CCN(C(=O)CN(c2ccc(OCC)cc2)S(C)(=O)=O)CC1,21.8%,–,–
Cc1cn([C@H]2C=C[C@@H](CO)O2)c(=O)[nH]c1=O,-6.1% and -13.1%,"580 nM [rising, single point] and 3.66 µM [rising, partial curve]",–
CC(=O)c1c(C)[nH]c(C(=O)OCC(=O)N(CC(C)C)C2CCS(=O)(=O)C2)c1C (stereo not given),14%,–,–
CSCCCNC(=S)N1CCc2ccccc2C1,-17.8%,"3.26 µM [falling, partial curve, poor fit]",–
Cc1ccc(N(C)S(=O)(=O)c2cccc(C(=O)NC3CC(C)(C)NC(C)(C)C3)c2)cc1,8.84%,–,–
COc1cccc(NS(=O)(=O)c2ccc(-c3coc(C)n3)cc2)c1,-33.3%,"29.1 µM [falling, single point]","16.4 µM [falling, single point]"
CCCOc1ccc(NC(=O)CC2C(=O)OCC3CCCCN32)cc1 (stereo not given),2.28%,"0.0058 µM [rising, full curve, poor fit]",–
C1CN(CCN2CCOCC2)CCN1,15.2%,–,–
Cc1ccc(C)c(SCC(=O)NC(=O)Nc2ccc3c(c2)OCCO3)c1,25.4%,"23.1 µM [rising, single point]",–
CCn1cc(C(=O)OCC(=O)N(C)Cc2ccccc2)c(=O)c2ccc(C)nc21,24.4%,–,–
COc1cccc(-c2nn3c(-c4ccccn4)nnc3s2)c1,–,"0.13 µM [rising, full curve]",–
CCCc1cc(C(=O)Nc2cccc3ccccc23)n(C)n1,4.5%,"1.03 µM [falling, full curve, poor fit]",–
Clc1cccc2c1Sc1ccccc1CC2N1CCNCC1 (stereo not given),-68.4%,"29.1 µM [falling, single point]","23.1 µM [falling, single point]"
CC(C)N(C(=O)CSc1nnnn1C1CCCC1)C(C)C,-3.29%,"5.17 µM [falling, partial curve, poor fit]","6.51 µM [falling, single point]"
Cc1cc(=O)oc2c(C)c(OC(C)C(=O)NCCCN3CCCC3=O)ccc12 (stereo not given),-11.4%,"6.51 µM [falling, single point]",–
O=S(=O)(c1ccc(Br)s1)N1CCN(c2ccccn2)CC1,37.8%,–,"23.1 µM [rising, single point]"
COc1ccc(OC)c(Nc2nc(NCc3ccco3)nc(N)c2[N+](=O)[O-])c1,-10.3%,"0.461 µM [falling, partial curve, poor fit]",–
COc1ccc(CCNC(=O)c2ccc3c(c2)N(Cc2ccc(C)cc2)CCS3)cc1OC,-4.25%,–,–
CC1(C)C(=O)C2(CCCCC2)C(=O)OC1c1cccs1 (stereo not given),-8.14%,"2.59 µM [falling, partial curve, poor fit]",–
Cc1ccccc1NC(=O)Cn1nc(C(=O)O)c2ccccc2c1=O,11.8%,–,–

Structure (SMILES),cell number change,AC50 [1],AC50 [2]
CCOc1ccc(C(=O)N2CCCC2C(=O)O)cc1 (stereo not given),20%,"0.0651 µM [rising, full curve, poor fit]",–
COc1cc(/C=C2/CC/C(=C/c3ccc(O)c(OC)c3)C2=O)ccc1O,-17.5%,"29.1 µM [falling, single point]",–
Cc1cccc(NC(=O)CCNS(=O)(=O)c2cccc3nsnc23)c1,-14.5%,"1.16 µM [rising, full curve]",–
CC(=O)c1c(C)[nH]c(C(=O)NCc2ccccc2F)c1C,10.4%,–,–
O=C(NC(=S)NCc1ccccc1)c1cccc(Cl)c1,-2.75%,"3.66 µM [rising, full curve]",–
CCOc1ccc(C(=O)NCCCN2CCCC2=O)cc1,21.6%,"6.51 µM [falling, single point]",–
CCOC(=O)c1cc2c(ccn2C)n1CC(=O)N1CCN(c2ccc(F)cc2)CC1,-46.6%,"3.66 µM [falling, full curve]","4.11 µM [falling, full curve]"
CC(C)=CC(=O)OCC(=O)NC1CCCc2ccccc21 (stereo not given),15.8%,–,–
Cc1ccccc1-c1nc2ccccc2c(=O)n1/N=C/c1ccccc1[N+](=O)[O-],-27.2%,–,–
CC(=O)N1c2ccc(S(=O)(=O)N3CCCC(C(=O)Nc4cccc(F)c4)C3)cc2CC1C (stereo not given),22%,–,–
CCOC(=O)c1c(-c2ccccc2)oc2ccc(OCC(O)CN(C)C)cc12 (stereo not given),13.2%,–,"0.00517 µM [rising, full curve, poor fit]"
CC(=C/c1ccco1)/C=N/NC(=O)CSc1nnc(SCc2ccc(C)cc2)s1,14.9%,"0.82 µM [falling, single point]","0.651 µM [falling, full curve]"
COc1ccc(C(=O)N/N=C/c2ccc(OC)c(COc3ccc(F)cc3F)c2)cc1,19.7%,"0.282 µM [falling, full curve]",–
CC(=O)NS(=O)(=O)c1ccc(N=NN2CCOCC2)cc1,-30.5%,"3.26 µM [falling, full curve]","23.1 µM [falling, partial curve, poor fit]"
S=c1[nH]nc(-c2ccc(Br)cc2)n1-c1ccc(Br)cc1,-29.8%,"29.1 µM [falling, single point]",–
COc1ccc(C(CNC(=O)c2ccco2)N2CCOCC2)cc1 (stereo not given),20.5%,"1.64 µM [falling, partial curve, poor fit]",–
Cc1ccc2c(C)c(C(=O)Nc3ccc(S(N)(=O)=O)cc3)oc2c1C,-10.1%,–,–
Cc1c(CNCCc2ccccc2Cl)c(C(=O)O)c(C)n1-c1ccccc1,-0.709%,–,"2.06 µM [rising, partial curve, poor fit]"
O=C(CN1CCc2ccccc2C1)Nc1ccc(F)cc1F,144%,"29.1 µM [rising, single point]",–
Cc1cc(NC(=O)CSC2=NCCS2)no1,–,"29.1 µM [rising, single point]",–

Structure (SMILES),cell number change,AC50 [1],AC50 [2]
COc1cc(CCC(=O)N2CCN(S(=O)(=O)c3ccc(C)cc3)CC2)cc(OC)c1OC,4.7%,"0.731 µM [falling, single point]",–
Cc1ccc(NC(=O)Nc2ccc3c(c2)OCO3)c(Br)c1,-43.3%,–,"29.1 µM [falling, single point]"
C=CCNC(=O)c1ccc(-c2nc(-c3ccc(Cl)cc3Cl)cs2)cc1,–,"0.58 µM [rising, single point]",–
Clc1ccccc1/C=C/c1ccnc2ccccc12,-27.6%,"29.1 µM [falling, single point]",–
C=CCN1C(=O)S/C(=C\c2ccc3c(c2)n(C)c(=O)n3C)C1=O,8.25%,"0.0366 µM [rising, full curve, poor fit]",–
C=CCn1c(SCC(=O)NCC)nnc1-c1cc2c(s1)CCC(CC)C2 (stereo not given),-34.3%,"32.6 µM [falling, single point]","32.6 µM [falling, single point]"
CC/C(=N\NC(=S)Nc1ccc(OC)cc1)c1ccc(OC(F)F)cc1,39.7%,"0.366 µM [rising, full curve, poor fit]","9.2 µM [rising, partial curve]"
C#CCOCCOCCOCCNc1nc(N2CCN(C(=O)CCCCCCCCCCNC(=O)[C@@H]([C@H](C)O)n3cc(C)nn3)CC2)nc(N2CCN(C(=O)CCCCCCCCCCNC(=O)[C@@H]([C@H](C)O)n3cc(C)nn3)CC2)n1,-28.1%,"0.0058 µM [falling, full curve, poor fit]",–
O=C(CN1C2=NCCN2c2ccccc21)N1CCOCC1,-21.2%,"0.231 µM [falling, full curve]",–
CC(C#N)On1c(SC(C)C#N)nc2ccccc2c1=O (stereo not given),-21.2%,–,"1.64 µM [falling, partial curve, poor fit]"
O=C(CSC1=Nc2ccccc2C2CC=NN12)Nc1ccc(F)c(F)c1F (stereo not given),-23%,"32.6 µM [rising, partial curve, poor fit]",–
Cc1cc(C)c(S(=O)(=O)Nc2ccc[nH]c2=O)c(C)c1,–,–,"6.51 µM [rising, single point]"
CS(=O)(=O)N1CCN(C(=O)NC23CC4CC(CC(C4)C2)C3)CC1,-27.2%,"29.1 µM [falling, single point]","0.58 µM [falling, full curve, poor fit]"
O=C(COc1ccc2ccc(=O)oc2c1)N1CCN(c2ccc(F)cc2)CC1,12.5%,"6.51 µM [falling, single point]",–
CC1(C)CC(NC(=O)COc2cc3oc(=O)c4c(c3cc2Cl)CCC4)CC(C)(C)N1,10.4%,"20.6 µM [rising, partial curve]",–
CCOc1ccccc1C(=O)N1CCN(c2cccc(Cl)c2)CC1,–,"1.46 µM [rising, partial curve]","2.06 µM [rising, partial curve]"
Cc1nn(Cc2ccccc2)c(Cl)c1C(=O)OCC#N,36.9%,–,"14.6 µM [rising, partial curve]"
CC(=O)Nc1ccc(S(=O)(=O)NCC2(N3CCOCC3)CCCCC2)cc1,-50%,–,"29.1 µM [falling, single point]"
CCOC(=O)NCC(C#CCN(CC)CC)N(CC)CC (stereo not given),-109%,"29.1 µM [falling, single point]","14.6 µM [falling, partial curve]"
CCOc1ccc(N(CC(=O)NC(C)CC)S(=O)(=O)c2c(C)noc2C)cc1 (stereo not given),-3.27%,"0.651 µM [falling, full curve]","0.731 µM [falling, full curve, poor fit]"

# In a second layout: entries from further up.
Structure (SMILES)	cell number change	AC50 [1]	AC50 [2]
C=CCn1c(SCC(=O)NCC)nnc1-c1cc2c(s1)CCC(CC)C2 (stereo not given)	-34.3%	32.6 µM [falling, single point]	32.6 µM [falling, single point]
CC/C(=N\NC(=S)Nc1ccc(OC)cc1)c1ccc(OC(F)F)cc1	39.7%	0.366 µM [rising, full curve, poor fit]	9.2 µM [rising, partial curve]
C#CCOCCOCCOCCNc1nc(N2CCN(C(=O)CCCCCCCCCCNC(=O)[C@@H]([C@H](C)O)n3cc(C)nn3)CC2)nc(N2CCN(C(=O)CCCCCCCCCCNC(=O)[C@@H]([C@H](C)O)n3cc(C)nn3)CC2)n1	-28.1%	0.0058 µM [falling, full curve, poor fit]	–
O=C(CN1C2=NCCN2c2ccccc21)N1CCOCC1	-21.2%	0.231 µM [falling, full curve]	–

# From PubChem BioAssay AID2685 (National Center for Advancing Translational Sciences (NCATS), 2010)
